Experimental data reported in the supplement of paper PMC12823440, “Inhibitors supercharge kinase turnover through native proteolytic circuits” (Nature, 2025).
Counter-ions that a name gives are not always drawn. This is one part of the list. The calls rarely recur for the same compound in another form.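 Kinases, fused to nanoluciferase, were expressed in K562 cells; luminescence was measured every 4 h from 2 to 18 h as percent of control (DMSO = 100%, positive control = 0%). A time point is decreased if signal falls significantly (2 sigma). Hits were called by the authors by a rule that is not shown; the count of time points alone does not decide it.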

The chains behind the UniProt entries cited, without tags or fusion partners. Where a name states a change or a piece, a line headed by the entry shows the natural chain unless it says otherwise.
UniProt Q9UQB9: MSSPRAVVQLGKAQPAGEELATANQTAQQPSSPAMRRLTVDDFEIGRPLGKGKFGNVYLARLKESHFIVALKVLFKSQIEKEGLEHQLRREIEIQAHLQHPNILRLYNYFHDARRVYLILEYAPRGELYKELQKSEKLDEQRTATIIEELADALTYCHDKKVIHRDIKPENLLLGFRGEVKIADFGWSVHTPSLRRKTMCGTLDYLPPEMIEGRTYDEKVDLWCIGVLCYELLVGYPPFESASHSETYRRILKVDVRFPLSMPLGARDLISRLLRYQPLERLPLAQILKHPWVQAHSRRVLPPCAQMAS

target: AURKC (UniProt Q9UQB9); assay: kinase-Nluc reporter destabilization hit call (1 = scored as downregulated) (binary); higher = compound decreases kinase abundance; conditions: K562; 2-18 h

kinase-Nluc reporter destabilization hit call, inactive:
COc1cc2nccc(Oc3ccc(NC(=O)NC4CC4)c(Cl)c3)c2cc1C(N)=O [Lenvatinib] (10 µM) 0
COc1ccc2c(OCc3nnc4ccc(-c5ccccc5)nn34)ccnc2c1 (2 µM) 0
COc1cc2ncnc(Nc3ccc(Cl)cc3F)c2cc1OC (10 µM) 0
N#Cc1c(C2CCNCC2)cc(-c2c(O)cccc2OCC2CC2)nc1N [ACHP (Hydrochloride)] (10 µM) 0
CNC(=O)c1c(F)cccc1Nc1nc(Nc2cc3c(cc2OC)CCN3C(=O)CN(C)C)nc2[nH]ccc12 (10 µM) 0
COc1cc2c(N3CCN(C(=O)Nc4ccc(OC(C)C)cc4)CC3)ncnc2cc1OCCCN1CCCCC1 [Tandutinib (hydrochloride)] (10 µM) 0
CN1CCN(c2cccc(Nc3nc4c(-c5ccc(S(C)(=O)=O)cc5)cccn4n3)c2)CC1 (10 µM) 0
Cn1cc(-c2ccc3c(c2)CCN3C(=O)Cc2cccc(C(F)(F)F)c2)c2c(N)ncnc21 (2.5 µM) 0
O=Nc1c(-c2c(O)[nH]c3ccc(F)cc23)[nH]c2ccccc12 [5'-Fluoroindirubinoxime] (10 µM) 0
C=C(CC[C@@H](C(=O)O)[C@H]1[C@H](O)C[C@@]2(C)C3=C(CC[C@]12C)[C@@]1(C)CC[C@H](OC(C)=O)C(C)(C)[C@@H]1CC3)C(C)C [Pachymic acid] (10 µM) 0
Cc1cc(Nc2ncnc3ccc(NC4=NC(C)(C)CO4)cc23)ccc1Oc1ccn2ncnc2c1 [Tucatinib] (2.5 µM) 0
CCNc1nc(Nc2cc(F)c(C(=O)N3CCOCC3)cc2OC)ncc1C(F)(F)F [GNE-7915 (tosylate)] (10 µM) 0
Cc1ccc(C(=O)Nc2ccc(Oc3cc4cnn(C)c4cc3-c3cn[nH]c3)c(F)c2)c(=O)n1-c1ccc(F)cc1 [Merestinib dihydrochloride] (2.5 µM) 0
Nc1ncnc2c1c(-c1cccc(OCc3ccccc3)c1)cn2C1CC(CN2CCC2)C1 (centres undefined) (2.5 µM) 0
Cn1cnc2c(F)c(Nc3ccc(Br)cc3Cl)c(C(=O)NOCCO)cc21 [Selumetinib (sulfate)] (10 µM) 0
Cc1cc(Nc2ncnc3ccc(NC4=NC(C)(C)CO4)cc23)ccc1Oc1ccn2ncnc2c1 [Tucatinib (hemiethanolate)] (2.5 µM) 0
Cc1cc2ncc(-c3ccc(O)c(O)c3)nc2cc1C [Tyrphostin AG1433] (10 µM) 0
CCN1CCN(Cc2ccc(Nc3ncc(F)c(-c4cc(F)c5nc(C)n(C(C)C)c5c4)n3)nc2)CC1 [Abemaciclib (methanesulfonate)] (10 µM) 0
Cn1cnc2c(F)c(Nc3ccc(Br)cc3Cl)c(C(=O)NOCCO)cc21 [Selumetinib] (10 µM) 0
S=C(SSC(=S)N1CCOCC1)N1CCOCC1 (10 µM) 0
Cn1nccc1Nc1nccc(-c2ccn([C@H](CO)c3ccc(Cl)c(F)c3)c(=O)c2)n1 [Ravoxertinib hydrochloride] (10 µM) 0
Cc1ccc(C(=O)Nc2ccc(Oc3cc4cnn(C)c4cc3-c3cn[nH]c3)c(F)c2)c(=O)n1-c1ccc(F)cc1 [Merestinib] (2.5 µM) 0
c1ccc(-c2[nH]ncc2-c2ccnc3ccccc23)nc1 (10 µM) 0
O=C(CSC1=NCCN1)NC1CCCCCC1 [ICCB-19 (hydrochloride)] (2.5 µM) 0
Cn1cc(-c2cnn3c(N)c(Br)c([C@@H]4CCCNC4)nc23)cn1 (2.5 µM) 0
O=C(Nc1cn[nH]c1-c1ccccn1)c1nn(C2CCNCC2)cc1Cl (10 µM) 0
Cc1nc(-c2cn3c(n2)-c2ccc(-c4cnn(C(C)(C)C(N)=O)c4)cc2OCC3)n(C(C)C)n1 [Taselisib] (10 µM) 0
O=C(NCCN1CCOCC1)c1cc2c(Oc3ccc(NC(=O)C4(C(=O)Nc5ccc(F)cc5)CC4)cc3)ccnc2[nH]1 [Tyrosine kinase inhibitor] (10 µM) 0
CN(CC(=O)N(Cc1ccc(C2CCCCC2)cc1)c1ccc(C(=O)NO)cc1)S(=O)(=O)c1c(F)c(F)c(F)c(F)c1F (2.5 µM) 0

Reprinted at random: two entries already listed.
kinase-Nluc reporter destabilization hit call, inactive:
Cn1cc(-c2cnn3c(N)c(Br)c([C@@H]4CCCNC4)nc23)cn1 (2.5 µM) 0
Cc1cc2ncc(-c3ccc(O)c(O)c3)nc2cc1C [Tyrphostin AG1433] (10 µM) 0
